Values quoted from earlier work in patent US20090028873A1, “SUBSTITUTED CYCLOHEXANOLS” (AUSPEX PHARMACEUTICALS, INC., priority 2007, published 2009).

Test system: norepinephrine uptake
Conditions: result in words; cited from earlier work

COc1cccc(C2(O)CCCCC2CN(C)C)c1 (single isomer, unassigned; (-)) [(−)-tramadol]
inhibitor of norepinephrine uptake: most potent inhibitor
